Laboratory results: PubChem BioAssay AID1259405 (NCATS, 2018)
The deposit covers about 50,000 reagents; below is an unselected part. About 4,000 of them (8%) count as active. 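Mouse siRNA library applied to hamster cells; one well for each siRNA.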 Unmarked entries are inactive. The numbers tell different reagents against one gene apart.

Aim: 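Knock-downs that lift recombinant protein yield in hamster ovary cells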 (primary screen)
Cells: Chinese hamster CHO-K1 ovary cells with stable secreted eGFP expression
Reagents: single siRNA against mouse genes, 0.8 pmol siRNA per well (2 µl of 400 nM stock)
Timing: 3 days
Measurement: 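Per-well intracellular GFP measured by laser scanning cytometry, plus viability from ATP luminescence, each relative to plate median of non-targeting control wells, in %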
Direction: GFP, % of control: higher = more GFP per well, higher productivity; viability (ATP), % of control: higher = more viable cells (more ATP)
Call rule: 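a knock-down is called active if GFP reaches 120% or more of non-targeting control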

| gene | siRNA no. | GFP, % of control | viability (ATP), % of control |
| --- | --- | --- | --- |
| Jun | 1 | 72.1 | 75 |
| Jun | 2 | 69 | 63.6 |
| Jun | 3 | 85.5 | 110 |
| Klk1b8 | 1 | 73.3 | 86.7 |
| Klk1b8 | 2 | 75.8 | 55.9 |
| Klk1b8 | 3 | 76.2 | 89.5 |
| Castor2 | 1 | 57.4 | 75.8 |
| Castor2 | 2 | 36.1 | 24.4 |
| Castor2 | 3 | 34.7 | 53.1 |
| Fgf12 | 1 | 50.3 | 69.1 |
| Fgf12 | 2 | 57.8 | 62.3 |
| Fgf12 | 3 | 55.3 | 51.7 |
| Cpeb2 | 1 | 56 | 57.3 |
| Cpeb2 | 2 | 29 | 43.3 |
| Cpeb2 | 3 | 36.4 | 73 |
| Ceacam19 | 1 | 89.2 | 70.9 |
| Ceacam19 | 2 | 119 | 75.5 |
| Ceacam19 | 3 | 112 | 107 |
| Pcgf3 | 1 | 66.5 | 66.9 |
| Pcgf3 | 2 | 69.4 | 80.8 |
| Pcgf3 | 3 | 66.1 | 40.7 |
| Ferry3 | 1 | 75.9 | 86.3 |
| Ferry3 | 2 | 85.2 | 72.4 |
| Ferry3 | 3 | 90.4 | 93.5 |
| Gpr149 | 1 | 142 (active) | 54.6 |
| Gpr149 | 2 | 76.9 | 71.1 |
| Gpr149 | 3 | 73.7 | 86.4 |
| Or6n1 | 1 | 34.9 | 45.2 |
| Or6n1 | 2 | 86.9 | 85.1 |
| Or6n1 | 3 | 82.7 | 80.6 |
| Zfp595 | 1 | 77 | 80 |
| Zfp595 | 2 | 76.8 | 79.2 |
| Zfp595 | 3 | 93.8 | 117 |
| Cripto | 1 | 19.2 | 40.4 |
| Cripto | 2 | 76.5 | 81.1 |
| Cripto | 3 | 99.9 | 90.7 |
| Ccl22 | 1 | 76.1 | 102 |
| Ccl22 | 2 | 53.6 | 74.5 |
| Ager | 1 | 63.8 | 86.3 |
| Ager | 2 | 129 (active) | 43.8 |
| Ager | 3 | 90.4 | 68.7 |
| 4921517D22Rik | 1 | 47.9 | 59.3 |
| 4921517D22Rik | 2 | 65.9 | 57.1 |
| 4921517D22Rik | 3 | 100 | 105 |
| Vamp4 | 1 | 62.7 | 69.2 |
| Vamp4 | 2 | 74.1 | 97.1 |
| Vamp4 | 3 | 110 | 60 |
| Aph1a | 1 | 62.7 | 64.4 |
| Aph1a | 2 | 51.6 | 81.1 |
| Calml3 | 1 | 84.1 | 101 |
| Calml3 | 2 | 65.8 | 72.9 |
| Atp5mc1 | 1 | 18.1 | 31.7 |
| Atp5mc1 | 2 | 57.7 | 53.6 |
| Atp5mc1 | 3 | 36.4 | 49.2 |

Active calls (from the list above):
| gene | siRNA no. | GFP, % of control | viability (ATP), % of control |
| --- | --- | --- | --- |
| Gpr149 | 1 | 142 (active) | 54.6 |
| Ager | 2 | 129 (active) | 43.8 |

The results go on.
| gene | siRNA no. | GFP, % of control | viability (ATP), % of control |
| --- | --- | --- | --- |
| Rpap2 | 1 | 65.5 | 82.6 |
| Rpap2 | 2 | 54.2 | 73.9 |
| Rpap2 | 3 | 50.2 | 67.2 |
| Sftpd | 1 | 92.2 | 97.6 |
| Sftpd | 2 | 96.7 | 93.7 |
| Or10p1 | 1 | 90.1 | 91.8 |
| Or10p1 | 2 | 82.9 | 102 |
| Or10p1 | 3 | 53.8 | 50.4 |
| Gm5168 | 1 | 31.1 | 54.1 |
| Gm5168 | 2 | 93 | 56.9 |
| Gm5168 | 3 | 132 (active) | 63.1 |
| Ccr1l1 | 1 | 67.8 | 46.6 |
| Ccr1l1 | 2 | 107 | 105 |
| Ccr1l1 | 3 | 60.8 | 69.2 |
| Cd300ld | 1 | 90.8 | 46.4 |
| Cd300ld | 2 | 75.5 | 92.7 |
| Cd300ld | 3 | 61.5 | 56.3 |
| Cep295nl | 1 | 78 | 91.7 |
| Cep295nl | 2 | 132 (active) | 123 |
| Cep295nl | 3 | 97 | 80.9 |
| Avil | 1 | 69.5 | 69.5 |
| Avil | 2 | 63.5 | 61.1 |
| Cenpe | 1 | 77.6 | 45.6 |
| Cenpe | 2 | 77.2 | 84 |
| Zdhhc16 | 1 | 54.7 | 75.8 |
| Zdhhc16 | 2 | 50.9 | 74.8 |
| Zdhhc16 | 3 | 40.3 | 66.2 |
| Phlda3 | 1 | 95.8 | 90.5 |
| Phlda3 | 2 | 56.6 | 57.9 |
| Phlda3 | 3 | 66 | 132 |
| Slc46a3 | 1 | 80 | 102 |
| Slc46a3 | 2 | 64.3 | 84 |
| Slc46a3 | 3 | 66.5 | 78.8 |
| Zdhhc21 | 1 | 67.6 | 70 |
| Zdhhc21 | 2 | 87 | 60.4 |
| Zdhhc21 | 3 | 60.3 | 66.6 |
| Atpsckmt | 1 | 95.9 | 61.2 |
| Atpsckmt | 2 | 78.5 | 77.2 |
| Atpsckmt | 3 | 69.2 | 66.8 |
| Slc5a1 | 1 | 93.4 | 80.8 |
| Slc5a1 | 2 | 135 (active) | 133 |
| Slc5a1 | 3 | 65.5 | 62.5 |
| Luzp2 | 1 | 66.4 | 73 |
| Luzp2 | 2 | 56.1 | 38.7 |
| Luzp2 | 3 | 29.9 | 36.1 |
| Tspan17 | 1 | 48.7 | 71.7 |
| Tspan17 | 2 | 108 | 101 |
| Tspan17 | 3 | 77 | 67.6 |
| Pax2 | 1 | 134 (active) | 85.3 |
| Pax2 | 2 | 96.4 | 63.2 |
| Pax2 | 3 | 26.9 | 37.8 |
| Hes2 | 1 | 84.3 | 66 |
| Hes2 | 2 | 75 | 73.5 |
| Hes2 | 3 | 76.9 | 62.8 |
